{"source": "PubChem BioAssay AID1671195 – Yale University | 2021", "screen": "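Regulators of LDL receptor activity judged by labelled LDL uptake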 (primary screen)", "cell system": "human Huh7 hepatoma cells", "reagent": "siRNA pool against human genes, 18 nM", "timing": "about 2 to 2.5 days of knockdown, then 8 h LDL uptake", "treatment": "DiI-labelled LDL at 30 µg/ml for 8 h, in lipoprotein-deficient serum medium", "read-out": "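Per-cell DiI-LDL intensity by automated imaging; well means scaled to the plate median and given as a robust z-score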", "scale": "robust z-score: higher = more LDL uptake after knockdown", "hit rule": "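a gene counts as active if at least two replicate z-scores exceed ±2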", "note": "The deposit covers about 22,000 reagents; shown is a part drawn at random. Over the whole deposit, about 1,510 (6.9%) got an active call. 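Active includes knockdowns raising or lowering LDL uptake; positive z-scores mean more uptake, negative mean less.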 Unmarked entries are inactive."}
The opening 2 records, to show the layout:
{"gene symbol": "KCNQ3 (potassium voltage-gated channel subfamily Q member 3)", "robust z-score, replicate 1": "-2.13 (active)", "robust z-score, replicate 2": -1.73, "robust z-score, replicate 3": -2.37}
{"gene symbol": "INPP5B (inositol polyphosphate-5-phosphatase B)", "robust z-score, replicate 1": -0.808, "robust z-score, replicate 2": -0.498, "robust z-score, replicate 3": -0.232}

The listing, from the first entry:
{"gene symbol": "KCNQ3 (potassium voltage-gated channel subfamily Q member 3)", "robust z-score, replicate 1": "-2.13 (active)", "robust z-score, replicate 2": -1.73, "robust z-score, replicate 3": -2.37}
{"gene symbol": "INPP5B (inositol polyphosphate-5-phosphatase B)", "robust z-score, replicate 1": -0.808, "robust z-score, replicate 2": -0.498, "robust z-score, replicate 3": -0.232}
{"gene symbol": "DNAJC5G (DnaJ heat shock protein family (Hsp40) member C5 gamma)", "robust z-score, replicate 1": 0.246, "robust z-score, replicate 2": -0.0773, "robust z-score, replicate 3": -0.0679}
{"gene symbol": "FAM120A (family with sequence similarity 120 member A)", "robust z-score, replicate 1": -0.655, "robust z-score, replicate 2": 2.08, "robust z-score, replicate 3": -1.1}
{"gene symbol": "C10orf143 (chromosome 10 open reading frame 143)", "robust z-score, replicate 1": -0.709, "robust z-score, replicate 2": -0.91, "robust z-score, replicate 3": -1.12}
{"gene symbol": "ZNF556 (zinc finger protein 556)", "robust z-score, replicate 1": -0.181, "robust z-score, replicate 2": -0.0607, "robust z-score, replicate 3": -0.313}
{"gene symbol": "SELENOO (selenoprotein O)", "robust z-score, replicate 1": -0.471, "robust z-score, replicate 2": -0.38, "robust z-score, replicate 3": 0.41}
{"gene symbol": "HEBP2 (heme binding protein 2)", "robust z-score, replicate 1": 2.61, "robust z-score, replicate 2": -0.0929, "robust z-score, replicate 3": 0.696}
{"gene symbol": "GGTLC1 (gamma-glutamyltransferase light chain 1)", "robust z-score, replicate 1": 0.38, "robust z-score, replicate 2": -0.108, "robust z-score, replicate 3": 1.33}
{"gene symbol": "MYL3 (myosin light chain 3)", "robust z-score, replicate 1": -0.221, "robust z-score, replicate 2": 0.33, "robust z-score, replicate 3": -1.3}
{"gene symbol": "SNRNP48 (small nuclear ribonucleoprotein U11/U12 subunit 48)", "robust z-score, replicate 1": -0.142, "robust z-score, replicate 2": -0.958, "robust z-score, replicate 3": -0.489}
{"gene symbol": "PEX5L (peroxisomal biogenesis factor 5 like)", "robust z-score, replicate 1": -1.96, "robust z-score, replicate 2": -1.04, "robust z-score, replicate 3": -0.188}
{"gene symbol": "LRRC26 (leucine rich repeat containing 26)", "robust z-score, replicate 1": -1.07, "robust z-score, replicate 2": -1.23, "robust z-score, replicate 3": -0.826}
{"gene symbol": "ACKR3 (atypical chemokine receptor 3)", "robust z-score, replicate 1": -1.1, "robust z-score, replicate 2": -0.98, "robust z-score, replicate 3": -1.1}
{"gene symbol": "ZC3HC1 (zinc finger C3HC-type containing 1)", "robust z-score, replicate 1": 1.22, "robust z-score, replicate 2": 1.08, "robust z-score, replicate 3": 0.18}
{"gene symbol": "SEC11C (SEC11 homolog C, signal peptidase complex subunit)", "robust z-score, replicate 1": 1.39, "robust z-score, replicate 2": 0.814, "robust z-score, replicate 3": 1.54}
